This is an account of results in patent US20030032096A1 (US Dept. of Health and Human Services, published 2003).

The chains behind the UniProt entries cited, without tags or fusion partners. Residues count along the entry.
UniProt P49190, residues 25-550: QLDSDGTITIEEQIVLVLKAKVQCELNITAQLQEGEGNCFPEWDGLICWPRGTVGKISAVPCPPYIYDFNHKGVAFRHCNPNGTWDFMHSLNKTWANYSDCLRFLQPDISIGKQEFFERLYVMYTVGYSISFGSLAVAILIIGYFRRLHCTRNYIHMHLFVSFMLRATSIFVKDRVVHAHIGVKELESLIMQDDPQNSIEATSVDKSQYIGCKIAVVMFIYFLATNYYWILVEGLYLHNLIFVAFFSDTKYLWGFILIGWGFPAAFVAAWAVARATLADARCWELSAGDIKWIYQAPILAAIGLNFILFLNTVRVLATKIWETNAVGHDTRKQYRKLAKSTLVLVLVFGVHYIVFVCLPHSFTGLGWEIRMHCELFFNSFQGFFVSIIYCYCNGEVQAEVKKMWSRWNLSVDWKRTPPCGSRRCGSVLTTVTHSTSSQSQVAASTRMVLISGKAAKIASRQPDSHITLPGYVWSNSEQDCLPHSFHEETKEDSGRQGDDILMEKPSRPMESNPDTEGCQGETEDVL
UniProt P12272, residues 43-70: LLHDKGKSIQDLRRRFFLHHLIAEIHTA

The assay concerns the target human parathyroid hormone type 2 receptor (PTH2 receptor) (human) (UniProt P49190). In words: displacement of [125I]TIP39, HEK293 membranes, 10 µM GTPγS. In general terms: In a radioligand displacement assay an active substance lowers the binding of a labelled ligand.

No constants are given. Whether binding was seen depends on the method and setting. Some entries that bind do so weakly or less than the wild type.

Consider “PTHrP(7-34) amide (from UniProt P12272 43-70) (peptide)”, for which the binding result is listed as “binds”.
